Substitutions are numbered along the chain they refer to. These are yes or no findings as the source states them, for the method shown. Some entries that bind do so weakly or less than the wild type.

Amino acid sequences for entries named in this document (tags omitted).
UniProt Q9NZD1: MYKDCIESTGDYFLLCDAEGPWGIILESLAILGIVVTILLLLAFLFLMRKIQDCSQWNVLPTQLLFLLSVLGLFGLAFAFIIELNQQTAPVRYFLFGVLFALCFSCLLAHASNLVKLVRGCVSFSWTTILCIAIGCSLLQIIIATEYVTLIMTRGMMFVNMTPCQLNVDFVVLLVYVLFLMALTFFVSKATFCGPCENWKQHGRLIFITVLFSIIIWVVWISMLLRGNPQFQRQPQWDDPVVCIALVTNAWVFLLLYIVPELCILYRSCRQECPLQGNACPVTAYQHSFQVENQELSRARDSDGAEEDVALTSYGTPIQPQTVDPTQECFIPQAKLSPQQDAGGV

For experiment [1], the target named is human G-protein-coupled receptor family C group 5 member D (GPRC5D) (human) (UniProt Q9NZD1). Description: FACS, CHO-K1/human GPRC5D, chimeric antibody.
Experiment [2] shares this target. Description: FACS, CHO-K1/GPRC5D. In general terms: A flow cytometer gives signals particle by particle.
Experiment [3] shares this target. Description: FACS, NCI-H929 cells.
Experiment [4] has the same target. Description: FACS, CHO-K1/human GPRC5D.
Experiment [5] shares this target. Description: FACS, CHO-K1/human GPRC5D, hybridoma supernatant.

B1: 40A5B2 (chimeric) (antibody, V domains shown)
VH: EVQLQQSGPELVKPGASVKMSCKASGYTFTRNIMHWVKQKPGQGLEWIGYINPYNAGSKYNEKFKGKATLTSDISSSTAYMELSSLTSEDSAVYYCAREEVYYRYGAWFAYWGHGTLVTVSA
VL: DIVLTQSPASLAVSLGQRATISCRASQSVSTSSYSYMHWYQQKPGQPPKLLIKYASNLESGVPARFSGSGSGTDFTLNIHPVEEEDTATYYCQHSWEIPRTFGGGTKLEIK
As for B1, in experiment [1], the binding result is listed as “binds”.

B2: 34-H1L1 (antibody, V domains shown)
VH: EVQLVESGGGLVKPGGSLRLSCAASGFTFSSYGMSWVRQAPGKGLEWVSTISSGGSYTYYPDSVKGRFTISRDNAKNSLYLQMNSLRAEDTAVYYCARQGGDAMDYWGQGTLVTVSS
VL: DIQMTQSPSSLSASVGDRVTITCRASQSINNNLHWYQQKPGKAPKLLIYYASQSISGVPSRFSGSGSGTDFTLTISSLQPEDFATYYCQQSNSRLTFGGGTKVEIK
notes: humanized 34D3H1, VH v1 x VL v1
For the molecule B2, the binding entry in experiment [2], in experiment [3] and in experiment [4] was “binds” each time.

B3: 38A10E9A11 (chimeric) (antibody, V domains shown)
VH: QVQLQQSGAELARPGASVKMSCKASGYTFTTYTMHWVKQRPGQGLEWIGYINPSSGYTNYNQKFKDKATLTAGKSSSTAYMQLSSLTSEDSAVYYCASLRSRGYFDYWGRGTTLTVSS
VL: DIVMTQSQKFLSTSVGDRVSITCKASQNVGTAVAWYQQKPGQSPKLLIYSASNRYTGVPDRFTGSGSGTDFTLTISNMQSEDLAGYFCQQYSSYPYTFGGGTKLEIK
notes: also called 38A9E10A11
On to B3, for which, in experiment [1], the binding entry is “binds”.

B4: 6G10D9-XI (antibody, V domains shown)
VH: B3 VH with I48L, R110Q
VL: B3 VL with K9T, L11M, S20R, A34V, P40T, K45R, G85D, Y86F
notes: also called 6G10D9 (chimeric); 6G1009-X1
As for B4, the binding entry in experiment [1] is recorded as “binds”.

B5: 37-H1L1 (antibody, V domains shown)
VH: EVQLVESGGGLVQPGGSLRLSCAASGFTFSDYWMNWVRQAPGKGLEWVAEIRLKSNNYATHYAESVKGRFTISRDNAKNSLYLQMNSLRAEDTAVYYCARPLLWFRRYYAMDYWGQGTLVTVSS
VL: DIQMTQSPSSLSASVGDRVTITCSASQGISNYLNWYQQKPGKAPKLLIYYTSSLHSGVPSRFSGSGSGTDFTLTISSLQPEDFATYYCQQYSKLPFTFGQGTKLEIK
notes: humanized 37B9C4, VH v1 x VL v1; also called 37B9C4 (H1L1)
With B5, the binding entry in experiment [2], in experiment [3] and in experiment [4] was “binds” throughout.

B6: 6-H3L3 (antibody, V domains shown)
VH: QVQLVQSGAEVAKPGASVKVSCKASGYTFTTYTMHWVKQAPGQGLEWLGYINPSSGYTNYNQKFKDRVTMTADTSTSTVYMELSSLRSEDTAVYYCASLRSRGYFDYWGQGTLVTVSS
VL: DIQMTQSPSFLSTSVGDRVTITCKASQNVGTAVVWYQQKPGKSPKLLIYSASNRYTGVPSRFSGSGSGTEFTLTISSMQPEDFATFFCQQYSSYPYTFGQGTKLEIK
notes: humanized 6G10D9, VH v3 x VL v3
With B6, the binding entry in experiment [2], in experiment [3] and in experiment [4] was “binds” throughout.

B7: 6-H4L3 (antibody, V domains shown)
VH: B6 VH with V20M, M70L, V114L
VL: B6 VL
notes: humanized 6G10D9, VH v4 x VL v3
Take B7: the binding entry in experiment [3] and in experiment [4] was “binds” throughout.

B8: 34-XI (antibody, V domains shown)
VH: EVHLVESGGDLVKPGGSLKLSCAASGFTFSSYGMSWVRQTPDKRLEWVATISSGGSYTYYPDSVKGRFTISRDNAKNTLNLQMSSLKSEDTAMYYCARQGGDAMDYWGQGTSVTVSS
VL: DIVLTQSPATLSVTPGDSVSLSCRASQSINNNLHWYQQKSHESPRLLIKYASQSISGIPSRFSGSGSGTDFTLSINSVETEDFGMYFCQQSNSRLTFGAGTKLELK
notes: also called 34D3H1 (chimeric)
On to B8, for which the binding entry in experiment [1] is on record as “binds”.

B9: 21C3C11B3 (chimeric) (antibody, V domains shown)
VH: QVQLQQSGAELVRPGTSVKVSCKASGYAFINYLIEWIKQRPGQGLEWIGMINPGSGGTNYNEKFKDKATLTADKSSSTAYMQLSSLTSDDSAVYFCARNWDVWGQGTTLTVSS
VL: DVVMTQSPLSLPVSLGDQASVSCRSSQSLVHSTGNTYLHWYLQKPGQSPKLLIYKVSNRFSGVPDRFSGSGSGTDFTLKISRVEAEDLGVYFCSQSTHVPWTFGGGTKLEIK
For the molecule B9, the binding entry in experiment [1] is given as “binds”.

B10: 37B9C4-XI (antibody, V domains shown)
VH: EVNLEESGGGLVQPGGSMKLSCVASGFTFSDYWMNWVRQSPEKGLEWVAEIRLKSNNYATHYAESVKGRFTISRDDSKSSVYLQMNNLRAEDTGIYYCTRPLLWFRRYYAMDYWGQGTSVTVSS
VL: DIQMTQTTSSLSASLGDRITISCSASQGISNYLNWYQQKPDGTVKLLIYYTSSLHSGVPSRFSGSGSGTDYSLTISNLEPADIATYYCQQYSKLPFTFGSGTKLEIK
notes: also called 37B9C4 (chimeric); 37-XI
Turning to B10, the binding result in experiment [1] is given as “binds”.

B11: 58-H1L1 (antibody, V domains shown)
VH: QVQLVQSGAEVKKPGASVKVSCKASGYSFTGYYIHWVRQAPGQGLEWMGYISSYNAATSFNQKFKGRVTMTRDTSTSTVYMELSSLRSEDTAVYYCARTELRGPWFAYWGQGTLVTVSS
VL: DIQMTQSPSSLSASVGDRVTITCSASSSVSYMNWYQQKPGKAPKLLIYDTSKLASGVPSRFSGSGSGTDFTLTISSLQPEDFATYYCQQWSNNPLTFGQGTKLEIK
notes: humanized 58F9G10, VH v1 x VL v1
As for B11, the binding entry in experiment [2], in experiment [3] and in experiment [4] was “binds” each time.

B12: 58-H3L1 (antibody, V domains shown)
VH: B11 VH with R38K, M48I, M70F, R72V, L83F
VL: B11 VL
notes: humanized 58F9G10, VH v3 x VL v1
In the case of B12, the binding result in experiment [2], in experiment [3] and in experiment [4] was “binds” throughout.

B13: 29B2C10 (chimeric) (antibody, V domains shown)
VH: EVQLQQSGPELVKPGASMKLSCKASGYSFTGYTMHWVKQSHGENLEWIGLINPYNGGTNYNQKFKGKATLTVDKSSSTAYMELLSLTSEDSAVYYCSRWGLRRAMDYWGQGTSVTVSS
VL: DIVMTQSQKFMSTSVGDRVSVTCKASQNVGSNVAWYQQKPGQSPKALIYSASYRYSGVPDRFTGNGSGTDFTLTISNVQSEDLAEYFCQQYYNSPWTFGGGTKLEIK
On to B13, for which the binding result in experiment [1] is reported as “binds”.

B14: 58F9G10 (antibody, V domains shown)
VH: EVQLQQSGPELVKTGASVKISCKASGYSFTGYYIHWVKQSHGKSLEWIGYISCYNGATSFNQKFKGKATFTVDTSSSTAYMQFNSLTSEDSAVYYCARTELRGPWFAYWGQGTLVTVSA
VL: QTVLTQSPAIMSASPGEKVTMTCSASSSVSYMNWYQQKSGTSPKRWIYDTSKLASGVPARFSGSGSGTSYSLTISSMEAEDAATYYCQQWSNNPLTFGAGTKLELK
notes: murine antibody from hybridoma supernatant
Consider B14, for which, in experiment [5], the binding result was “binds”.

B15: 58F9G10-XI (antibody, V domains shown)
VH: B14 VH
VL: B14 VL
notes: also called 58F9G10 (chimeric); 58-XI
As to B15, in experiment [1], the binding result was “binds”.

The record behind these values is patent publication US12281162 (LANOVA MEDICINES DEVELOPMENT, dated 2025).
